Measurements reported in PubChem BioAssay AID1259405 (NCATS, 2018).
Test: 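Knock-downs that lift recombinant protein yield in hamster ovary cells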 (primary screen). Cell system: Chinese hamster CHO-K1 ovary cells with stable secreted eGFP expression. Reagents: single siRNA against mouse genes, 0.8 pmol siRNA per well (2 µl of 400 nM stock). Timing: 3 days. Measurement: 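Percent of the per-plate non-targeting control median for intracellular GFP per well by laser scanning cytometry and for cell viability by ATP luminescence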. Reading the numbers: GFP, % of control: higher = more GFP per well, higher productivity; viability (ATP), % of control: higher = more viable cells (more ATP). Call rule: 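a knock-down is called active if GFP reaches 120% or more of non-targeting control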.
In all, the deposit lists about 50,000 reagents; below is a random part of them. In the full data, about 4,000 (8%) got an active call. 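Mouse siRNA library applied to hamster cells; one well for each siRNA.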 Reagents against one gene are numbered here. Reagent sequences are not shown.

Lrrc75b (GeneID 192734) #1 → GFP, % of control: 119; viability (ATP), % of control: 51.9; Call: inactive
Lrrc75b (GeneID 192734) #2 → GFP, % of control: 83.2; viability (ATP), % of control: 91.8; Call: inactive
Lrrc75b (GeneID 192734) #3 → GFP, % of control: 263; viability (ATP), % of control: 42.5; Call: active
Lrrc75b (GeneID 192734) #4 → GFP, % of control: 98.3; viability (ATP), % of control: 81.7; Call: inactive
Lrrc75b (GeneID 192734) #5 → GFP, % of control: 81; viability (ATP), % of control: 85.9; Call: inactive
Lrrc75b (GeneID 192734) #6 → GFP, % of control: 82; viability (ATP), % of control: 89; Call: inactive
Gnb4 (GeneID 14696) #1 → GFP, % of control: 81.6; viability (ATP), % of control: 111; Call: inactive
Gnb4 (GeneID 14696) #2 → GFP, % of control: 78.7; viability (ATP), % of control: 77.9; Call: inactive
Gnb4 (GeneID 14696) #3 → GFP, % of control: 79.9; viability (ATP), % of control: 72.6; Call: inactive
C5ar2 (GeneID 319430) #1 → GFP, % of control: 52.4; viability (ATP), % of control: 61.2; Call: inactive
C5ar2 (GeneID 319430) #2 → GFP, % of control: 44.2; viability (ATP), % of control: 53.8; Call: inactive
C5ar2 (GeneID 319430) #3 → GFP, % of control: 77.9; viability (ATP), % of control: 80.5; Call: inactive
Birc5 (GeneID 11799) #1 → GFP, % of control: 51; viability (ATP), % of control: 35.9; Call: inactive
Birc5 (GeneID 11799) #2 → GFP, % of control: 75.5; viability (ATP), % of control: 71.4; Call: inactive
Birc5 (GeneID 11799) #3 → GFP, % of control: 114; viability (ATP), % of control: 70.3; Call: inactive
Ttc14 (GeneID 67120) #1 → GFP, % of control: 62.4; viability (ATP), % of control: 54.3; Call: inactive
Ttc14 (GeneID 67120) #2 → GFP, % of control: 143; viability (ATP), % of control: 91.2; Call: active
Ttc14 (GeneID 67120) #3 → GFP, % of control: 107; viability (ATP), % of control: 102; Call: inactive
Vmn1r70 (GeneID 171262) #1 → GFP, % of control: 118; viability (ATP), % of control: 81.6; Call: inactive
Vmn1r70 (GeneID 171262) #2 → GFP, % of control: 80.8; viability (ATP), % of control: 82.2; Call: inactive
Vmn1r70 (GeneID 171262) #3 → GFP, % of control: 47.1; viability (ATP), % of control: 67.4; Call: inactive
St8sia3 (GeneID 20451) #1 → GFP, % of control: 125; viability (ATP), % of control: 98.9; Call: active
St8sia3 (GeneID 20451) #2 → GFP, % of control: 122; viability (ATP), % of control: 135; Call: active
St8sia3 (GeneID 20451) #3 → GFP, % of control: 114; viability (ATP), % of control: 79.5; Call: inactive
Mtg1 (GeneID 212508) #1 → GFP, % of control: 98.6; viability (ATP), % of control: 64.8; Call: inactive
Mtg1 (GeneID 212508) #2 → GFP, % of control: 66.3; viability (ATP), % of control: 65.7; Call: inactive
Mtg1 (GeneID 212508) #3 → GFP, % of control: 53.1; viability (ATP), % of control: 51.1; Call: inactive
Fmn2 (GeneID 54418) #1 → GFP, % of control: 57.4; viability (ATP), % of control: 61.9; Call: inactive
Fmn2 (GeneID 54418) #2 → GFP, % of control: 72.5; viability (ATP), % of control: 85.2; Call: inactive
Fmn2 (GeneID 54418) #3 → GFP, % of control: 48.6; viability (ATP), % of control: 77.5; Call: inactive
Ptpro (GeneID 19277) #1 → GFP, % of control: 107; viability (ATP), % of control: 71; Call: inactive
Ptpro (GeneID 19277) #2 → GFP, % of control: 57.6; viability (ATP), % of control: 41.8; Call: inactive
Ptpro (GeneID 19277) #3 → GFP, % of control: 126; viability (ATP), % of control: 113; Call: active

Hits (from the list above):
Lrrc75b (GeneID 192734) #3 → GFP, % of control: 263; viability (ATP), % of control: 42.5; Call: active
Ttc14 (GeneID 67120) #2 → GFP, % of control: 143; viability (ATP), % of control: 91.2; Call: active
St8sia3 (GeneID 20451) #1 → GFP, % of control: 125; viability (ATP), % of control: 98.9; Call: active
St8sia3 (GeneID 20451) #2 → GFP, % of control: 122; viability (ATP), % of control: 135; Call: active
Ptpro (GeneID 19277) #3 → GFP, % of control: 126; viability (ATP), % of control: 113; Call: active

The listing continues.
Samm50 (GeneID 68653) #1 → GFP, % of control: 51.9; viability (ATP), % of control: 50.9; Call: inactive
Samm50 (GeneID 68653) #2 → GFP, % of control: 68.2; viability (ATP), % of control: 88.6; Call: inactive
Samm50 (GeneID 68653) #3 → GFP, % of control: 109; viability (ATP), % of control: 52.7; Call: inactive
Gpr4 (GeneID 319197) #1 → GFP, % of control: 120; viability (ATP), % of control: 99.6; Call: inactive
Gpr4 (GeneID 319197) #2 → GFP, % of control: 97.8; viability (ATP), % of control: 74; Call: inactive
Gpr4 (GeneID 319197) #3 → GFP, % of control: 71.7; viability (ATP), % of control: 73.2; Call: inactive
Klk7 (GeneID 23993) #1 → GFP, % of control: 57.2; viability (ATP), % of control: 78.2; Call: inactive
Klk7 (GeneID 23993) #2 → GFP, % of control: 67.8; viability (ATP), % of control: 85.2; Call: inactive
Klk7 (GeneID 23993) #3 → GFP, % of control: 50.8; viability (ATP), % of control: 57.8; Call: inactive
Cdh24 (GeneID 239096) #1 → GFP, % of control: 65.4; viability (ATP), % of control: 70.4; Call: inactive
Cdh24 (GeneID 239096) #2 → GFP, % of control: 72.1; viability (ATP), % of control: 48.5; Call: inactive
Cdh24 (GeneID 239096) #3 → GFP, % of control: 67.1; viability (ATP), % of control: 64.3; Call: inactive
Bace1 (GeneID 23821) #1 → GFP, % of control: 93; viability (ATP), % of control: 102; Call: inactive
Bace1 (GeneID 23821) #2 → GFP, % of control: 78; viability (ATP), % of control: 66.5; Call: inactive
Bace1 (GeneID 23821) #3 → GFP, % of control: 49.6; viability (ATP), % of control: 63.9; Call: inactive
Sox9 (GeneID 20682) #1 → GFP, % of control: 105; viability (ATP), % of control: 79.7; Call: inactive
Sox9 (GeneID 20682) #2 → GFP, % of control: 82.2; viability (ATP), % of control: 88.6; Call: inactive
Sox9 (GeneID 20682) #3 → GFP, % of control: 71.7; viability (ATP), % of control: 91.6; Call: inactive
Ifi209 (GeneID 236312) #1 → GFP, % of control: 50; viability (ATP), % of control: 64.8; Call: inactive
Ifi209 (GeneID 236312) #2 → GFP, % of control: 32.6; viability (ATP), % of control: 41.9; Call: inactive
Ifi209 (GeneID 236312) #3 → GFP, % of control: 76.7; viability (ATP), % of control: 104; Call: inactive
